Among the data in article PMC9333443, “Structural insights into Pot1-ssDNA, Pot1-Tpz1 and Tpz1-Ccq1 Interactions within fission yeast shelterin complex” (PLoS Genetics, 2022) are binding values, retold here.

Sequences of proteins named here, by UniProt entry; tags and fusion partners are left off. A change or cut given only in a name is not applied to a line headed by its entry.
UniProt O13988: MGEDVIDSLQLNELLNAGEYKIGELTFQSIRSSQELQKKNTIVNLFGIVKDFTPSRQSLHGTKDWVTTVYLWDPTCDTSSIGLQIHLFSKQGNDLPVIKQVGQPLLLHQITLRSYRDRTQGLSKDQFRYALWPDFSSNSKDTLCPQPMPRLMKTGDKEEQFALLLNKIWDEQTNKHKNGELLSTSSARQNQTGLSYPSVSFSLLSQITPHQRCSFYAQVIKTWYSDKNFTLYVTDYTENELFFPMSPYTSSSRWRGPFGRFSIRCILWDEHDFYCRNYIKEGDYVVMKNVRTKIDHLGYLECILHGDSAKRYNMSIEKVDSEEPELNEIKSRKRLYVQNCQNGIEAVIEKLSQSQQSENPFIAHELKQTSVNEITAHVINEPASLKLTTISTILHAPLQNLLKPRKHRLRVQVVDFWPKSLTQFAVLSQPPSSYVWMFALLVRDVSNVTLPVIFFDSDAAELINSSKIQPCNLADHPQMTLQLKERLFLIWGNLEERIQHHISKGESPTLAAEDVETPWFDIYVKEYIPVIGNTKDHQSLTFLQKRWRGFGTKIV
UniProt O14246: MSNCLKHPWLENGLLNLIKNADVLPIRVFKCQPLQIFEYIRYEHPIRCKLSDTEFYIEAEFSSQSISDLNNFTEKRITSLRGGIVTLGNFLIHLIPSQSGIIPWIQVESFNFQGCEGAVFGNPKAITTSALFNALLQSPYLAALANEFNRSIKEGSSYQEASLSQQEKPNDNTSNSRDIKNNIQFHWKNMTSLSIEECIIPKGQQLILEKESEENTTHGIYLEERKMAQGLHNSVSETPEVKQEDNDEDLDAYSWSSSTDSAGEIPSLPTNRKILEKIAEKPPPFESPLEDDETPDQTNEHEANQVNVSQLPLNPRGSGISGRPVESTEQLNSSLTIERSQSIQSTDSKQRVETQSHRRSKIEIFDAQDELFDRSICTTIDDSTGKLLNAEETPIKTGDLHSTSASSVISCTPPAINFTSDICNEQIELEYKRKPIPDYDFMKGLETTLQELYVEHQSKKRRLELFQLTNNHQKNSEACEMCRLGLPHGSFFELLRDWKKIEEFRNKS

These are yes or no findings as the source states them, for the method shown. Binding calls can cover weak binding; strength is not graded here. For some assays here: Binding seen in cells or lysates may run through a third protein.

Experiment [1] deals with Pot1OB3 (Pot1 372-555), purified (S. pombe) (UniProt O13988). The experiment in a line: crystal structure; Pot1OB3-Tpz1PIM complex, SAD, 2.6 Å; sitting drop at 4°C, 25% PEG8000, 100 mM sodium citrate, 100 mM Tris-HCl pH 8.0; both purified.
Experiment [2] has the same target. The experiment in a line: SEC; co-expressed and co-purified complexes on gel filtration (calibrated for Tpz1CBM-Ccq1TAD); 25 mM Tris-HCl pH 8.0, 150 mM NaCl, 5 mM dithiothreitol; both purified. Background: Size exclusion chromatography separates by hydrodynamic size, large species first.

Turning to “Tpz1PIM (Tpz1 185-212), purified (from UniProt O14246) (domain or fragment)”, the binding result in experiment [1] and in experiment [2] was “binds” throughout.
